{
  "source": "patent US20080221109A1",
  "about": "“PESTICIDAL SUBSTITUTED THIOETHERS” (priority 2005, published 2008)",
  "test_system": "Rhipicephalus sanguineus",
  "experiment": "Method B: screening method to test contact activity against Rhipicephalus sanguineus (Brown dog tick)",
  "assay_type": "in vivo",
  "details": "test concentration 1000 ppm; treated filter paper, 20-30 larvae (L1); assessed 24 hours after application vs untreated control",
  "note": "Some results were stated once for a whole list of compounds, not compound by compound.",
  "data": [
    {"molecule": "O=C1CCCCC1Sc1ncccn1", "note": "(stereo not shown) [Compound 03-43, 2-(Pyrimidin-2-ylsulfanyl)-cyclohexanone]", "values": [
      {"measurement": "contact control of Rhipicephalus sanguineus", "value": "at least 70%"}
    ]}
  ]
}
